Reference: PMC4821554
No constants are given. Whether binding was seen depends on the method and setting. In cells and extracts the contact can be indirect. Binding calls can cover weak binding; strength is not graded here.

Protein sequences, listed by entry. Tags and fused reporters are not part of them. Lines headed by an entry give the natural chain unless they say otherwise; changes in a name come on top.
UniProt P43354: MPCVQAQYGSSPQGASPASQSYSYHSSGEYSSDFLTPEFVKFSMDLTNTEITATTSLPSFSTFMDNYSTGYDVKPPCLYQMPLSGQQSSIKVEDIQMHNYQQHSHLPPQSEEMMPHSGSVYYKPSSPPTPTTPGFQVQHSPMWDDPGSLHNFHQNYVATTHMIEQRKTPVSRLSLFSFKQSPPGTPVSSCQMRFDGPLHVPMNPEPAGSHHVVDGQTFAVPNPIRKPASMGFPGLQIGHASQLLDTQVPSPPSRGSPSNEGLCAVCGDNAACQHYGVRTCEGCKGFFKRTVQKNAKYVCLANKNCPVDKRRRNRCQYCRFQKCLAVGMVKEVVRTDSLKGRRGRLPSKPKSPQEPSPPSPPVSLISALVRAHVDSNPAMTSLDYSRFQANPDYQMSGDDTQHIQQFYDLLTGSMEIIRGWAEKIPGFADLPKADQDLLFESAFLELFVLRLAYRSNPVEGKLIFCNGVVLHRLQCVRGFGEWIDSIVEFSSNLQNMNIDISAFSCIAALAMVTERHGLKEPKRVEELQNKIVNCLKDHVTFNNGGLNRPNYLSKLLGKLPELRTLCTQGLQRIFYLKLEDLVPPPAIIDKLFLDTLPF
UniProt Q9WU82: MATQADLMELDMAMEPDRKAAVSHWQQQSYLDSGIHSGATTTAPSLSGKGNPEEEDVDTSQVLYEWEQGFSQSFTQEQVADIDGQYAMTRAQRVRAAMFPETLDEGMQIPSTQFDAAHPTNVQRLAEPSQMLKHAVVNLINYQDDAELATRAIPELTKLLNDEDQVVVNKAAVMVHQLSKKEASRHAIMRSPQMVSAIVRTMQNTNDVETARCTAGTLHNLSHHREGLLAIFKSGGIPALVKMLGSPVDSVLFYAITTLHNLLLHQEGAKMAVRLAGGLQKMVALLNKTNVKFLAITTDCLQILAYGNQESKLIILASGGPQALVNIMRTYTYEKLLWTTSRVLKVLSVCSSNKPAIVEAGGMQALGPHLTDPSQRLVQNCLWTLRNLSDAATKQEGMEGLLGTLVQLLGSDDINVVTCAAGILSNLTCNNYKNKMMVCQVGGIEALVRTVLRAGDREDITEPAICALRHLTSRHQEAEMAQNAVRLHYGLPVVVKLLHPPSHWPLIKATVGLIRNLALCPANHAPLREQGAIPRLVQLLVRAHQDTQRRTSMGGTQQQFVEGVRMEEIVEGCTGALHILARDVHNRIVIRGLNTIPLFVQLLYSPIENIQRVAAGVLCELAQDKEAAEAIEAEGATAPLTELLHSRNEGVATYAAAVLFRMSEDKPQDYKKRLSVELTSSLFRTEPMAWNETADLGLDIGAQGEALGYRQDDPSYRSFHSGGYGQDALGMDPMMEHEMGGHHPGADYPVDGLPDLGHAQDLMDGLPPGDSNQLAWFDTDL
UniProt P35222: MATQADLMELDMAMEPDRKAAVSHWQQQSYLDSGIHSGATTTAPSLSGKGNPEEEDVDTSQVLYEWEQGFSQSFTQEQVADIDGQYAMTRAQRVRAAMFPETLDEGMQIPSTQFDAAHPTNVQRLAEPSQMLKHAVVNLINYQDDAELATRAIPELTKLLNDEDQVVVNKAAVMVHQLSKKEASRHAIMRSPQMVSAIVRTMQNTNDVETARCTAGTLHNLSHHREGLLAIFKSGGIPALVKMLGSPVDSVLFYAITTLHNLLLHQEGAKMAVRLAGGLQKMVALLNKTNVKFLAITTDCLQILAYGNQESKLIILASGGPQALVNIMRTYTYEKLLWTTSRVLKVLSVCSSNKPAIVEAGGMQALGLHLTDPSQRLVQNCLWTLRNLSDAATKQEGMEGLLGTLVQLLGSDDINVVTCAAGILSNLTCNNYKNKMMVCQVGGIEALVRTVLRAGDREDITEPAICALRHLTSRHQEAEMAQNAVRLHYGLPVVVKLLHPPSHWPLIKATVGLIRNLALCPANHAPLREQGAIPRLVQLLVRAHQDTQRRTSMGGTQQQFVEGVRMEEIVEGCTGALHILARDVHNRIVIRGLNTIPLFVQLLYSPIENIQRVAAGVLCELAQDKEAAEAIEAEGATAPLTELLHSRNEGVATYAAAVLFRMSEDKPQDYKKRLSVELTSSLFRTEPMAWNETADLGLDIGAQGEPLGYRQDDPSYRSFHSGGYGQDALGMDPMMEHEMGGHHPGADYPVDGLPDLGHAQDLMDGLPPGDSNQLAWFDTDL

Assays:
[1] = molecular target: GST-fused AF1 domain of Nurr1 (human) (UniProt P43354); test: pull-down; GST-fused Nurr1 domains with midbrain of rat; preparation of the sample not told; only the target purified
[2] = molecular target: GST-fused AF1 domain of Nurr1 (human) (UniProt P43354); test: pull-down; GST-fused Nurr1 domains on glutathione-Sepharose beads incubated with nuclear proteins of PC12 cells transfected with β-catenin vectors for 24 hours; wash 50 mM Tris-HCl pH 7.3, 150 mM NaCl, 3 mM MgCl2, 1 mM EDTA, 1 mM DTT, 0.5% Triton X-100; only the target purified

β-catenin of the midbrain of rat (from UniProt Q9WU82 1-781)
binding [1]: binds

β-catenin (full-length human), expressed from pShuttle-IRES-hrGFP-2 (from UniProt P35222 1-781)
binding [2]: binds
